# Laboratory results from US20040152766A1, “Composition comprising demethylcantharidin in combination with platinum-containing anticancer agents and use thereof” (priority 2003, published 2004).
# Assays:
# [1] = tested on: Sensitive parental L1210 mouse leukaemia; assay type: cell-based; details: 72-hr exposure
# [2] = tested on: Cisplatin-resistant L1210 mouse leukaemia; details: 72-hr exposure
SMILES,"m, slope of the median-effect plot [1]","m, slope of the median-effect plot [2]","m, slope of the median-effect plot ([1]; listed as Demethylcantharidin (DMC))"
"N.N.O=C([O-])C1(C(=O)[O-])CCC1.[Pt+2] [Carboplatin, reference compound]",1.0537,0.8792 and 0.8972,
"N.N.[Cl][Pt][Cl] [Cisplatin, reference compound]",1.2405,1.6239,
[NH2][Pt]1([NH2])[O]C(=O)C2C3CCC(O3)C2C(=O)[O]1 (stereo not shown) [Complex 1],1.7975,2.7684,
O=C1[O][Pt]2([NH]C3CCCCC3[NH]2)[O]C(=O)C2C3CCC(O3)C12 (stereo not shown) [Complex 5],0.9498,0.7887,
"O=C1OC(=O)C2C3CCC(O3)C12 (stereo not shown) [DMC, Demethylcantharidin]",1.8366,1.6107,2.4154 and 2.4384 and 2.2353 and 2.6927 and 1.4432
O=C1[O][Pt]2([NH][C@@H]3CCCC[C@H]3[NH]2)[O]C1=O [Oxaliplatin],0.8324,0.6145,

# Values joined by “and” are separate entries in the source; they are usually repeats but may differ in a detail not shown here. Equal entries are not always repeated. Where two headings read alike, the source gives them in different places.
